Measured values: patent US5110904A (Abbott Laboratories, priority 1990, dated 1992)
Non-standard residues stand in square brackets, D forms with d. pGlu = O=C1CC[C@@H](C(=O)O)N1; NMeS = CN[C@@H](CO)C(=O)O

Assay: general procedure: Boc solid-phase peptide synthesis; Boc-Pro-O-Resin (Merrifield resin); DCC in dichloromethane (or DIC, with or without HOBT)
Details: whole synthesis, scale 1.05 mmol, trifluoroacetate salt

For [pGlu]HW[NMeS]Y[dL]LRP-NHEt, the crude mass was 0.7 g.
